# PubChem BioAssay AID504444 (National Center for Advancing Translational Sciences (NCATS), 2011)
# About 7,500 (2.1%) of roughly 360,000 compounds were called active. Inconclusive means that the source gave no clear call. Such entries were picked first, then a sample of the others. Calls follow the shape of the dose curve; as a rule, active = well fitted inhibition curve with a large enough effect; inconclusive = small, poorly fitted or top-dose-only effect, or effect the other way; inactive = flat fitted curve, though single readings scatter. Potencies beside an inconclusive call are fits to weak or partial responses and may not hold up.
# Test: Nrf2 qHTS screen for inhibitors; also: nearly all actives have a fitted effect of over 60% in size
# Details: A549 ARE-Fluc reporter, luciferase luminescence, 18-24 h; activity change, negative = inhibition: at 46 µM (top of the series)
# Procedure, shortened: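 Quantitative HTS in A549 cells stably bearing an antioxidant response element-firefly luciferase construct. Inhibition of Nrf2-driven transcription was scored by luminescence after 18-24 h of compound exposure at 37 °C.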
# % is scaled to controls: 0 for no effect and ±100 for the full control effect; potency is read from the fitted curve at half-maximal effect.
Structure (SMILES),Potency,"activity change, negative = inhibition"
COc1ccc(-n2c(COc3ccc4c(c3)OCO4)nnc2SCC(=O)O)cc1,"inconclusive: 4.61 µM [activator, partial curve, poor fit]",
COc1ccc(OC)c2sc(NC(=O)C3COc4ccccc4O3)nc12 (configuration not stated),"inconclusive: 16.4 µM [falling, partial curve]",
Cc1ccc(Nc2nc3ccc(Cl)cc3n3cnnc23)cc1F,"inconclusive: 2.59 µM [falling, partial curve, poor fit]",
CCOc1ccc(C(=O)NCC(=O)OCc2c(F)cccc2Cl)cc1,inactive,
CCN(CC)Cc1c(NC(=O)c2ccc(OC)cc2)sc2c1CCCC2,"inconclusive: 20.6 µM [activator, single point]",
CC(C)(C)C(=O)NC(=S)Nc1sc2c(c1C#N)CCCCC2,"inconclusive: 3.26 µM [activator, partial curve, poor fit]",
CCn1c(N2CCN(S(=O)(=O)c3ccc(Cl)cc3)CC2)nc2ccccc21,"inconclusive: 16.4 µM [falling, single point]",
COc1ccc(-c2nn(-c3ccccc3)cc2C(=O)Nc2cccc(S(=O)(=O)NC3=NCCC3)c2)cc1,"inconclusive: 5.8 µM [falling, full curve, poor fit]",
O=C1/C(=C/c2cccc3ccccc23)CCCc2ccccc21,"inconclusive: 25.9 µM [activator, single point]",
COc1ccc(-c2cc(C(=O)Oc3cccc(C)c3)c3cc(C)ccc3n2)cc1,"inconclusive: 2.91 µM [falling, partial curve, poor fit]",
O=C(NCC1OCCc2ccccc21)c1ccco1 (configuration not stated),"inconclusive: 29.1 µM [activator, single point]",
O=C(CSCCN1C(=O)c2ccccc2C1=O)Nc1ccc2ccccc2c1,"inconclusive: 13 µM [falling, partial curve, poor fit]",
CN1c2ccccc2C(O)=C(C(=S)Nc2ccc(Cl)cc2)S1(=O)=O,"inconclusive: 29.1 µM [falling, single point]",
COc1ccc(S(=O)(=O)N2CCN(CC(=O)Nc3c(C)n[nH]c3C)CC2)cc1OC,inactive,
COc1ccc(Br)cc1S(=O)(=O)N1CCN(S(=O)(=O)c2ccc3c(c2)OCCO3)CC1,"inconclusive: 14.6 µM [falling, partial curve, poor fit]",
CSc1ccc(NC(=O)N2CCC(C(=O)c3ccc(F)cc3)CC2)cc1,active: 16.4 µM,
CCOc1ccc(NC(=O)N(Cc2c[nH]c3ccccc23)C2CCCCCC2)cc1,"inconclusive: 8.2 µM [activator, partial curve]",
O=C(Nc1ccccc1N1CCCCC1)c1ncoc1-c1ccc(F)cc1,"inconclusive: 14.6 µM [falling, single point]",
COc1ccc(C2C(C(=O)Nc3ccccc3OC)=C(C)Nc3c(C(=O)Nc4ccccc4)cnn32)c(OC)c1 (configuration not stated),"inconclusive: 0.184 µM [activator, full curve, poor fit]",
COC(C)c1oc2c(C)c3oc(=O)cc(C)c3cc2c1C (configuration not stated),"inconclusive: 25.9 µM [falling, single point]",
O=C(Nc1ccc(Cl)cc1)/C(=C/c1cccc(O)c1)c1nc2ccccc2s1,"inconclusive: 29.1 µM [falling, single point]",
O=C(c1ccncc1)c1ccc(N2CCN(C3CC(=O)N(Cc4cccs4)C3=O)CC2)cc1 (configuration not stated),"inconclusive: 32.6 µM [falling, single point]",
CC(=O)Oc1ccc(N2C(=O)c3cccc4c([N+](=O)[O-])ccc(c34)C2=O)cc1,"inconclusive: 32.6 µM [falling, single point]",

Structure (SMILES),Potency,"activity change, negative = inhibition"
CC(=O)N(C)c1ccc(NC(=O)Nc2ccccc2C)cc1,"inconclusive: 29.1 µM [activator, single point]",
Cc1ccc(NC(=O)c2c(C)oc3ccc(O)c(CN4CCOCC4)c23)c(C)c1,"inconclusive: 20.6 µM [activator, partial curve, poor fit]",
O=C(Cn1c2ccccc2c(=O)c2ccccc21)N/N=C/c1ccc(N2CCCC2)c([N+](=O)[O-])c1,inactive,
CC1CCC2(CC1)NC(=O)N(CC(=O)Nc1cccc(S(=O)(=O)N3CCCCC3)c1)C2=O (configuration not stated),active: 18.4 µM,
COc1ccc(/C=N/Nc2nc3ccccc3s2)cc1O,"inconclusive: 23.1 µM [activator, partial curve]",
CC(C)CCNC(=O)CCn1c(=O)c2cccn2c2cccnc21,inactive,
Cc1ccc(NS(=O)(=O)c2ccc(OCC(=O)NCc3ccncc3)cc2)cc1,"inconclusive: 8.2 µM [falling, partial curve, poor fit]",
COc1ccc(S(=O)(=O)Nc2cc([N+](=O)[O-])ccc2OC)cc1,inactive,
C[C@@H]1CN(C(=O)c2ccc(OC3CCN(S(=O)(=O)N(C)C)CC3)cc2)C[C@H](C)O1,inactive,
O=C(Nc1ccc(OC(F)(F)F)cc1)c1cccc(-n2cnnn2)c1,"inconclusive: 13 µM [falling, single point]",
CC[C@@H](C)[C@@H](C(=O)Nc1ccc(C)cc1)N1Cc2ccccc2C1=O,inactive,
Cn1c(=S)sc2ccc3ccccc3c21,"inconclusive: 20.6 µM [falling, partial curve, poor fit]",
CN1CCCCc2c1nc1c(c2N)CCCC1,inactive,
Cc1ccc(NC(=O)c2cc3c(=O)n(Cc4ccco4)ccc3nc2C)cc1C,"inconclusive: 29.1 µM [falling, single point]",
CC1=C(C(=O)OC2CCCCC2)C(c2ccccc2Br)NC(=O)N1 (configuration not stated),"inconclusive: 8.2 µM [falling, partial curve, poor fit]",
Cc1ccc(NC(=O)NNC(=O)c2cccs2)cc1,"inconclusive: 29.1 µM [activator, single point]",
Cc1cc(NCCCN2CCOCC2)n2ncc(-c3ccc(Cl)cc3)c2n1,inactive,
CCn1c(=O)c(C(=O)NCc2ccc(F)cc2)c(O)c2ccccc21,"inconclusive: 32.6 µM [falling, single point]",
Cc1cc(C)n(-c2nnc(NC34CC5CC(CC(C5)C3)C4)nn2)n1,"inconclusive: 20.6 µM [activator, partial curve]",
C/C(=N\NC(=O)c1nn(C)cc1Br)c1cccc(NC(=O)C(C)(C)C)c1,inactive,
CCOC(=O)c1cc(-c2ccc(OC)cc2)nc2c1c(C)nn2CCC#N,"inconclusive: 29.1 µM [falling, single point]",
COc1ccc(Nc2nc(C)nc3c2nnn3Cc2ccccc2)cc1OC,"inconclusive: 16.4 µM [falling, partial curve, poor fit]",
CNC(=S)N1CCN(c2nc(-c3ccc(Cl)cc3)cs2)CC1,active: 18.4 µM,

Structure (SMILES),Potency,"activity change, negative = inhibition"
Cc1nc2sc(C(=O)N(C)c3ccccc3)c(NC(=O)c3ccccc3Cl)c2c(C)c1C,inactive,
O=C(Nc1ccc(N2CCN(C(=O)c3cccs3)CC2)cc1)c1cccnc1,"inconclusive: 3.66 µM [falling, partial curve]",
Nc1nc2ccc([N+](=O)[O-])c(N)c2s1,"inconclusive: 29.1 µM [falling, single point]",
CCCCCn1c(=O)[nH]c2cc(C(=O)Nc3ccc(OC)c(OC)c3)ccc2c1=O,,inactive: -10% [at 9.27 µM]
CCN(CC)S(=O)(=O)c1cccc(C(=O)Nc2ccc(Cl)cn2)c1,"inconclusive: 29.1 µM [falling, single point]",
COc1cccc(N2CCN(C(=O)Cn3cnc4onc(-c5ccc(F)cc5)c4c3=O)CC2)c1,active: 16.4 µM,
COc1ccc(NC(=O)CN2CCN(c3ccc(C)cc3C)CC2)cc1,"inconclusive: 32.6 µM [falling, partial curve, poor fit]",
COc1ccc(-c2csc(NC(=O)CCCc3nc4ccccc4c(=O)[nH]3)n2)cc1OC,"inconclusive: 14.6 µM [falling, partial curve, poor fit]",
CC(C)(C)c1cc[n+](C2=C([O-])c3ccccc3C(=O)/C2=N\S(=O)(=O)c2ccccc2)cc1,inactive,
CCCN(CCC)Cc1c(C(=O)N/N=C/c2ccoc2)nnn1-c1nonc1N,inactive,
CCOC(=O)C1=C(C)NC(=S)NC1/C=C/c1ccccc1 (configuration not stated),"inconclusive: 32.6 µM [falling, single point]",
Cc1nc(N2CCN(Cc3ccccc3)CC2)nc2c1CCC2,"inconclusive: 20.6 µM [activator, partial curve, poor fit]",
Cc1ccc(Cn2cnc3ccccc32)cc1,"inconclusive: 29.1 µM [falling, single point]",
CCN(C(=O)c1c(OC)cccc1OC)c1nnc(-c2cccnc2)s1,"inconclusive: 29.1 µM [falling, single point]",
O=C(c1cc(Cl)cc(Cl)c1)N1CCC(=O)N(C(COCc2ccccc2)Cc2ccccc2)CC1 (configuration not stated),"inconclusive: 16.4 µM [falling, single point]",
COc1ccc(CNc2oc(COc3cccc(C)c3)nc2C#N)cc1,inactive,
O=C(Nc1ccc(SC(F)F)cc1)c1ccc2c(=O)n3c(nc2c1)CCC3,active: 5.8 µM,
CCCc1ccc(OCc2ccc(C(=O)N3CCN(c4ccccn4)CC3)o2)c(OC)c1,"inconclusive: 20.6 µM [falling, single point]",
O=C(CC1CCCCC1)NCCOc1ccccc1,"inconclusive: 9.2 µM [activator, partial curve]",
Cc1ccc(SCc2nc(-c3ccc(C(=O)NCc4ccccc4Cl)cc3)oc2C)cc1,active: 14.6 µM,
CC(C)Cc1ccc(C(C)C(=O)Nc2nccs2)cc1 (configuration not stated),inactive,

# 3 successive entries already listed:
Structure (SMILES),Potency,"activity change, negative = inhibition"
O=C(c1cc(Cl)cc(Cl)c1)N1CCC(=O)N(C(COCc2ccccc2)Cc2ccccc2)CC1 (configuration not stated),"inconclusive: 16.4 µM [falling, single point]",
COc1ccc(CNc2oc(COc3cccc(C)c3)nc2C#N)cc1,inactive,
O=C(Nc1ccc(SC(F)F)cc1)c1ccc2c(=O)n3c(nc2c1)CCC3,active: 5.8 µM,
